Measurements reported in PubChem BioAssay AID686943 (Drosophila RNAi Screening Center, 2013)

- Assay: 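Fly genes whose loss alters ERK activation after insulin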 (primary screen)
- Cells: Drosophila S2R+ haemocyte-like cells expressing YFP-tagged ERK (Rolled)
- Reagent: long dsRNA against Drosophila genes
- Treatment: insulin stimulation versus unstimulated cells; dose and duration not given
- Measured: 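Per-plate z-scores of phospho-ERK immunostaining normalised to YFP-tagged ERK, measured with and without insulin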
- Scale: replicate 1, z-score of dpERK with insulin and replicate 2, z-score of dpERK with insulin: higher = more active ERK per ERK-YFP after insulin; replicate 1, z-score of dpERK under basal conditions: higher = more basal active ERK per ERK-YFP
The screen tested about 23,000 reagents; this is a random part of those with a known target gene and a result. 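Extra replicates exist only for a retested subset of genes; insulin dose and duration not given; both raised and lowered dpERK matter.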 Names joined by + are all predicted targets of the reagent. Further read-outs or replicates are left out here. Not given: the amount of reagent, the time to read-out.

no.	Gene	amplicon	replicate 1, z-score of dpERK with insulin	replicate 2, z-score of dpERK with insulin	replicate 1, z-score of dpERK under basal conditions
1	CG2310	DRSC15438	0.56	0.04	1.75
2	ics	DRSC01878	-0.34	0.02	-0.6
3	CG13064	DRSC09947	0.46	-0.04	-0.64
4	Muc96D	DRSC13709	1.02	0.67	0.8
5	Muc96D	DRSC21609	0.97	0.69	0.6
6	CG16781	DRSC18117	0.18	0.79	1.78
7	RpLP0-like	DRSC06424	-0.37	-0.38	-1.56
8	Coq8	DRSC19900	-0.73	0.71	-0.53
9	Cda5	DRSC00003	-0.09	0.25	-0.25
10	Cda5	DRSC00529	0.07	-0.35	-0.68
11	Cda5	DRSC00532	-0.2	-0.71	-0.81
12	Cda5	DRSC21330	-4.28	0.97	2.37
13	CG3955	DRSC06859	0.02	-0.17	0.46
14	Hdc	DRSC07439	-0.14	-0.4	0.19
15	scpr-B	DRSC15200	0.27	-0.1	-0.37
16	Sirt1	DRSC03435	-0.81	-0.6	-0.64
17	Rala	DRSC18703	-0.77	-0.76	-0.36
18	mAChR-A	DRSC04702	-4.39	-3.26	-1.45
19	prtp	DRSC19804	0.66	1.27	0.36
20	prtp	DRSC22494	0.58	0.51	-0.71
21	Drl-2	DRSC05393	-0.85	-0.48	-0.81
22	Drl-2	DRSC06155	0	0.5	-0.34
23	Drl-2	DRSC06858	0.66	0.16	-0.49

The list goes on, starting with the last 2 of the part before.
no.	Gene	amplicon	replicate 1, z-score of dpERK with insulin	replicate 2, z-score of dpERK with insulin	replicate 1, z-score of dpERK under basal conditions
22	Drl-2	DRSC06155	0	0.5	-0.34
23	Drl-2	DRSC06858	0.66	0.16	-0.49
24	Sfp53D	DRSC05625	1.05	1.14	-0.33
25	CG30161	DRSC22141	3.14	1.55	0.33
26	asRNA:CR33945	DRSC14080	0.69	1.38	-1.62
27	Srg1	DRSC14640	0.51	0	-0.03
28	bru1	DRSC01234	-7.16	-5.4	-0.72
29	bru1	DRSC01236	-0.79	-2.09	-1.93
30	bru1	DRSC01237	0.47	-0.18	0.94
31	bru1	DRSC01238	1.28	-0.04	-1.17
32	bru1	DRSC03485	0.52	-0.16	-0.9
33	euc	DRSC14492	0.26	-1.34	0.42
34	prt	DRSC16894	1.15	0.28	1.35
35	CG10862	DRSC08170	0.67	0.62	0.47
36	Vps33B	DRSC15722	1.12	0.03	0.29
37	Atg18a	DRSC10943	-0.6	0.07	1.28
38	Proc-R	DRSC18410	0.23	0.48	1.16
39	lsn	DRSC16081	-0.03	0.18	0.87
40	PIG-O	DRSC06123	-0.23	0.4	1.01
41	CalpB	DRSC11109	-0.49	-0.93	0.58
42	mRpL33	DRSC18319	0.87	0.69	-0.94
43	Dyro	DRSC10598	-0.22	0.44	-0.46
44	CG34450	DRSC17822	0.1	0.17	-0.21
45	CG9915	DRSC20217	-0.55	-0.08	-0.98
46	CG9915	DRSC21565	0.79	-0.3	0.38
47	eve	DRSC07614	0.66	0.17	2.89
48	CG34230	DRSC05317	-0.7	0.17	2.49
49	CG12909	DRSC06224	0.03	0.38	0.02
50	CG12661	DRSC17864	-0.01	-0.15	0.23
51	MKP-4	DRSC19567	0.21	0.5	0.58
52	CG7264	DRSC10793	0.04	-0.3	0.22
53	slbo	DRSC04716	0.64	0.24	0.86
54	Acp33A + CG15841 (retired record)	DRSC01859	0.57	0.2	0.15
55	Bili	DRSC14405	2.41	-0.11	3.83
56	CR17567 (retired record)	DRSC02627	-0.14	0.28	-0.22
57	CR17567 (retired record)	DRSC22537	0.21	0.29	0.07
